Reference: patent US20250326791A1
Results are given in words; binding and its absence hold for the method and conditions named. Some binding calls cover weakened binding; strength is not graded here.

Target: T1, L-fucose bearing asialofetuin (model glycoprotein) (UniProt P12763)
T1 sequence (desialylated glycoprotein bearing L-fucose, looked up): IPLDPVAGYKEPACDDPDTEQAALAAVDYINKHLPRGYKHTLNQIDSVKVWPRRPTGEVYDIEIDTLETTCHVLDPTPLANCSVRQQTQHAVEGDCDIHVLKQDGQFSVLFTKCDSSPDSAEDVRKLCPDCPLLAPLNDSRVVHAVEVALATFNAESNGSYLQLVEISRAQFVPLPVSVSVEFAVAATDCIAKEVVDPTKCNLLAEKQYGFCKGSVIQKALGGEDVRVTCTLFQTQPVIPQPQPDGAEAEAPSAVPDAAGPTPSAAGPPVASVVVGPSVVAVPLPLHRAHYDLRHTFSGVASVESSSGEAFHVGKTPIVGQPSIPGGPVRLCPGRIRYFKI
Assay: ITC

binding: binds
B1: Control: RVFSL-cyclo[…]P (peptide)
peptide: RVFSLCNATYPYKGACP
modifications: cyclo: disulfide bond Cys6-Cys16
